Source: article PMC8571288
For some assays here: A negative result means that nothing was seen under these conditions. For some assays here: For at least one entry, the source does not settle the construct or the ends of the probe. For some assays here: A weaker result is weaker than the reference pair of the same experiment. For some assays here: At least one verdict was read from the data and is not stated in words by the source.

Chains of the proteins cited; added tags and fusions are not shown. Where a name states a change or a piece, a line headed by the entry shows the natural chain unless it says otherwise. Chains listed by the source or under a name are the forms on record and can include a tag or linker.
UniProt Q06609, whole entry: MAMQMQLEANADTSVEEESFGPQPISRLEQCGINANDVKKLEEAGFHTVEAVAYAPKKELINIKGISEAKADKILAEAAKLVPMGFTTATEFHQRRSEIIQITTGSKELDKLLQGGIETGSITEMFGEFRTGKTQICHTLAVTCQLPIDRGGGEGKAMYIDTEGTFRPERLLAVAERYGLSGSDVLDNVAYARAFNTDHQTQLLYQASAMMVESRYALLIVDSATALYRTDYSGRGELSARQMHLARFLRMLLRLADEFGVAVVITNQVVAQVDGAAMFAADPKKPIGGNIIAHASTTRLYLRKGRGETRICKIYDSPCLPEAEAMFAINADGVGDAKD
UniProt P0A7G6: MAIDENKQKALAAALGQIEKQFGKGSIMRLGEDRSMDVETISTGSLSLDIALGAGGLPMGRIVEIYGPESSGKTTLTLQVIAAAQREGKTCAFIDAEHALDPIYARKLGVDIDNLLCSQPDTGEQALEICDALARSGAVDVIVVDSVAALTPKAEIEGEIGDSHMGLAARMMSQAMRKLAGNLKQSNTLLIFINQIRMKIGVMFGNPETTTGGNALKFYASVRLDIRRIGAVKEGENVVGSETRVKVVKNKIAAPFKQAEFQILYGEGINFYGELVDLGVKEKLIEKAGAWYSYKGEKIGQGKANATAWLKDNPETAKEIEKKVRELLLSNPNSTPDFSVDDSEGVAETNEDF
UniProt P0AGE0: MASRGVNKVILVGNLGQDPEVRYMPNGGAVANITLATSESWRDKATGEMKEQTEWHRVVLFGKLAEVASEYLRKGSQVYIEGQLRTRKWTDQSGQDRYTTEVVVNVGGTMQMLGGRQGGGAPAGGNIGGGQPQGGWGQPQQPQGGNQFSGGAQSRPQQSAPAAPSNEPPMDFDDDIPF
SNAP649-CST (Homo sapiens), one chain, as listed by the source, chain 1 of 3: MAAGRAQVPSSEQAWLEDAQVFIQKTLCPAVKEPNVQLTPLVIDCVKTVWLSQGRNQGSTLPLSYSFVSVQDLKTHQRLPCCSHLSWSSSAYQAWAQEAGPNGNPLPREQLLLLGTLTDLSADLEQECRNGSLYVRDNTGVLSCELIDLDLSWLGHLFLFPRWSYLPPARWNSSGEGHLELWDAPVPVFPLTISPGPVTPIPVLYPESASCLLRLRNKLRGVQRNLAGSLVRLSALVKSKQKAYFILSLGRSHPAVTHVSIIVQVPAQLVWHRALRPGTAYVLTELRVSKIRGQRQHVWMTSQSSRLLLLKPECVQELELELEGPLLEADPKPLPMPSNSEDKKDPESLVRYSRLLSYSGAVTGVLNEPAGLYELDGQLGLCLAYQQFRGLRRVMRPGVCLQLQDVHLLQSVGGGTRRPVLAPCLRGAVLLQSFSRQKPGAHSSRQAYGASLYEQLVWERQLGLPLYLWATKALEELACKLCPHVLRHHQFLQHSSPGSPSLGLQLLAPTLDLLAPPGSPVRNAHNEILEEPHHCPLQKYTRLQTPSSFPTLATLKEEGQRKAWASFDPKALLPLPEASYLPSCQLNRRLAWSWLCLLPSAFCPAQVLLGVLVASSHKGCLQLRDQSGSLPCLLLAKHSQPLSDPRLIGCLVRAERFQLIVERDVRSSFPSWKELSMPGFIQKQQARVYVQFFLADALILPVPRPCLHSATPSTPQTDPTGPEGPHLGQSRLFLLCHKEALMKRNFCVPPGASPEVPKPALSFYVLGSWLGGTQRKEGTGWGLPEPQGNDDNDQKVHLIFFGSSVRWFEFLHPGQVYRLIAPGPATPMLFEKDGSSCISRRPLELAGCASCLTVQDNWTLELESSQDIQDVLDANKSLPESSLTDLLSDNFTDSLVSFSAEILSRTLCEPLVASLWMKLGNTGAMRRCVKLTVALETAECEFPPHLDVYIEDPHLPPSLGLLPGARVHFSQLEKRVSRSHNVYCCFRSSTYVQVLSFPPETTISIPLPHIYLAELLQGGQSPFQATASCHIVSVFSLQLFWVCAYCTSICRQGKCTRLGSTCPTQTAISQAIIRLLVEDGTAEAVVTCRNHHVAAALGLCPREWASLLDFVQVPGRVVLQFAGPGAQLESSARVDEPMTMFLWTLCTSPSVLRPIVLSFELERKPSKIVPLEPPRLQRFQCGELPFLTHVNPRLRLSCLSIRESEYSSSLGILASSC
SNAP649-CST (Homo sapiens), one chain, as listed by the source, chain 3 of 3: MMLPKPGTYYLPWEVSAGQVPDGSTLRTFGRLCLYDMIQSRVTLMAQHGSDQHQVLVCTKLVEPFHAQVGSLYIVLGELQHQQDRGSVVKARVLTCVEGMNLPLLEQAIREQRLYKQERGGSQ
EGFP-RPA (Homo sapiens), one chain, as listed by the source, chain 3 of 3: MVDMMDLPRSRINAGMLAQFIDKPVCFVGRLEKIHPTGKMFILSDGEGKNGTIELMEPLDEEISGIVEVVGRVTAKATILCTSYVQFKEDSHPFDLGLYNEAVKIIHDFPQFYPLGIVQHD
EGFP-RPA (Homo sapiens), one chain, as listed by the source, chain 2 of 3: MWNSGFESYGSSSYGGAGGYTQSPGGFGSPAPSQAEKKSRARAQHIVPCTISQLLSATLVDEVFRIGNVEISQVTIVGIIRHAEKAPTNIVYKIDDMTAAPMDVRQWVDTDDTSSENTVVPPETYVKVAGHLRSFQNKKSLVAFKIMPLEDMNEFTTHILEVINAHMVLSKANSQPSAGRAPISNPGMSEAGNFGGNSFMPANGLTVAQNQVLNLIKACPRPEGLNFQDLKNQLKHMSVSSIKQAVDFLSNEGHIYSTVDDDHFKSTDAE
SNAP649-CST (Homo sapiens), one chain, as listed by the source, chain 2 of 3: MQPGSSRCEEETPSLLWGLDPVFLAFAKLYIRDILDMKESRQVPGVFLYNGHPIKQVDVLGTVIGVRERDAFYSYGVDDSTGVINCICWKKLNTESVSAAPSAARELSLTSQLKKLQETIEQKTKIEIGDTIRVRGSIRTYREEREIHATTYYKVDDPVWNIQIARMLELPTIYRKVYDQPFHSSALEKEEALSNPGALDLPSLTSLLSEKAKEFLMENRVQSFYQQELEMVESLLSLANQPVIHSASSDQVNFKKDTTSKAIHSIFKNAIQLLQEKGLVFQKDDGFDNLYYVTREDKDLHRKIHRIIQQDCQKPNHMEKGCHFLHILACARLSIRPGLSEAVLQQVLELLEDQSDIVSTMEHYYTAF

What was measured:
[1] = tested on: SNAP649-CST (Homo sapiens); test: EMSA; settings: 50 mM KCl, like native CST, EMSA: 35 mM Tris-HCl pH 7.5, 1 mM DTT, 2.5 mM MgCl2, 100 ng/uL BSA, 37 C, recombinant protein, protein details: SNAP (SNAP-Surface 649 label), label: 5' Cy3, single-stranded DNA
[2] = tested on: CST complex (CTC1-STN1-TEN1) (Homo sapiens); test: EMSA; settings: 50 mM KCl, EMSA: 35 mM Tris-HCl pH 7.5, 1 mM DTT, 2.5 mM MgCl2, 100 ng/uL BSA, 37 C, recombinant protein, protein details: FLAG-CTC1, TEN1-His6, label: 5' Cy3, single-stranded DNA
EGFP-RPA (Homo sapiens) = test: EMSA; settings: 50 mM KCl, like native RPA, EMSA: 35 mM Tris-HCl pH 7.5, 1 mM DTT, 2.5 mM MgCl2, 100 ng/uL BSA, 37 C, recombinant protein, protein details: EGFP, label: 5' Cy3, single-stranded DNA
[3] = tested on: RPA complex (Homo sapiens); test: EMSA; settings: 50 mM KCl, EMSA: 35 mM Tris-HCl pH 7.5, 1 mM DTT, 2.5 mM MgCl2, 100 ng/uL BSA, 37 C, recombinant protein, label: 5' Cy3, single-stranded DNA
RAD51 (Homo sapiens) [4] = molecular target: RAD51 (Homo sapiens) (UniProt Q06609); test: negative-stain EM; settings: 150 mM KCl, RPA-coated DNA, median filament 67.83 nm; smFRET: 25 mM Tris-HCl pH 7.5, 0.5 mM EDTA, 10% glycerol, 50 or 150 mM KCl (temperature not stated); recombinant protein; single-stranded DNA
RAD51 (Homo sapiens) [5] = molecular target: RAD51 (Homo sapiens) (UniProt Q06609); test: pull-down; settings: pull-down: 35 mM Tris-HCl pH 7.5, 10% glycerol, 0.01% Igepal, 1 mM 2-ME, 1 mM ATP, 2.5 mM MgCl2, 50 or 150 mM KCl, 37 C, recombinant protein, label: 5' biotin, on streptavidin beads, single-stranded DNA
[6] = tested on: CST complex (CTC1-STN1-TEN1) (Homo sapiens); test: pull-down; settings: RPA-coated DNA, 150 mM KCl; pull-down: 35 mM Tris-HCl pH 7.5, 10% glycerol, 0.01% Igepal, 1 mM 2-ME, 1 mM ATP, 2.5 mM MgCl2, 50 or 150 mM KCl, 37 C; recombinant protein; protein details: FLAG-CTC1, TEN1-His6; label: 5' biotin, on streptavidin beads; single-stranded DNA
RecA (E. coli) = RecA (E. coli) (UniProt P0A7G6); test: pull-down; settings: RPA-coated DNA plus CST, 50 mM KCl; pull-down: 35 mM Tris-HCl pH 7.5, 10% glycerol, 0.01% Igepal, 1 mM 2-ME, 1 mM ATP, 2.5 mM MgCl2, 50 or 150 mM KCl, 37 C; commercial protein; label: 5' biotin, on streptavidin beads; single-stranded DNA
SSB (E. coli) = SSB (E. coli) (UniProt P0AGE0); test: pull-down; settings: RPA-coated DNA, 50 mM KCl; pull-down: 35 mM Tris-HCl pH 7.5, 10% glycerol, 0.01% Igepal, 1 mM 2-ME, 1 mM ATP, 2.5 mM MgCl2, 50 or 150 mM KCl, 37 C; commercial protein; label: 5' biotin, on streptavidin beads; single-stranded DNA

TTAGAGCTTAATTGCTGAATCTGGTGCTGTGGGTGAACCTGCAGGTGGGCAAAGA [Cy3-Oligo 4 (55 nt)]
binding result [1]: binds | binding result [2]: binds | binding result (EGFP-RPA (Homo sapiens)): binds | binding result [3]: binds

TTATGTTCATTTTTTATATCCTTTACTTTATTTTCTCTGTTTATTCATTTACTTATTTTGTATTATCCTTATCTTATTTA [80-nt ssDNA Oligo 1]
binding result (RAD51 (Homo sapiens) [4]): binds more weakly

TTATGTTCATTTTTTATATCCTTTACTTTATTTTCTCTGTTTATTCATTTACTTATTTTGTATTATCCTTATCTTATTTA [80-nt ssDNA, biotinylated Oligo 1]
binding result (RAD51 (Homo sapiens) [5]; RPA-coated DNA plus CTC1Δ700N-ST): no binding | binding result (RAD51 (Homo sapiens) [5]; RPA-coated DNA, no CST): no binding | binding result (RAD51 (Homo sapiens) [5]; bare DNA (lane 3 vs 7)): binds | binding result [6]: no binding | binding result (RecA (E. coli)): no binding | binding result (SSB (E. coli)): no binding
